Binding data for three substances are collected here from article doi:10.1101/2022.09.22.508987.

Protein sequences, listed by entry. Tags and fused reporters are not part of them.
UniProt O75925: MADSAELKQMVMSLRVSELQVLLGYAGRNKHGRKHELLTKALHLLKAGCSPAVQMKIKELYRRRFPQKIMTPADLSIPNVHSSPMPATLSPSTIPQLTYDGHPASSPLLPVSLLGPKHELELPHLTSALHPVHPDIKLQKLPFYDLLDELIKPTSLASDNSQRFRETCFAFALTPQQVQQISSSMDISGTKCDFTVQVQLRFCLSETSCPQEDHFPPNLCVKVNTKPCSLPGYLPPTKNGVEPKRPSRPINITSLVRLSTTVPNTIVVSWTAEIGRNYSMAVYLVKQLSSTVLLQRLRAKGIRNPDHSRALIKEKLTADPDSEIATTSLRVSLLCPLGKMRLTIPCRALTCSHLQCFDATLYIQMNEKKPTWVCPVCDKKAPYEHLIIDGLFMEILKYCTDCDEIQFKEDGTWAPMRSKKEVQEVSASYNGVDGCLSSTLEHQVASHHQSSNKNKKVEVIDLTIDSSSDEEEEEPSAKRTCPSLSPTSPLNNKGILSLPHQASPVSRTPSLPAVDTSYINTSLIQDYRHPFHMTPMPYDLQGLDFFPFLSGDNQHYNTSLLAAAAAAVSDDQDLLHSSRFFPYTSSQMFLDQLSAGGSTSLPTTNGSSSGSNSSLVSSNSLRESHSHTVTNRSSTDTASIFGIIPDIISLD
UniProt Q9UNE7: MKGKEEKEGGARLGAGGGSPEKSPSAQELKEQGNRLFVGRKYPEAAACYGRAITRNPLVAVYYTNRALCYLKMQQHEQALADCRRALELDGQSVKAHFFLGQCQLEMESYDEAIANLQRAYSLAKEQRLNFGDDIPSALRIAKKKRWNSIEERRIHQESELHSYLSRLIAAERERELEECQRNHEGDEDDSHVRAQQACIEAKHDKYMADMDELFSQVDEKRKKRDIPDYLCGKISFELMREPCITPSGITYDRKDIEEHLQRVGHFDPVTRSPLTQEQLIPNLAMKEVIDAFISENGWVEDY
UniProt A6HD62: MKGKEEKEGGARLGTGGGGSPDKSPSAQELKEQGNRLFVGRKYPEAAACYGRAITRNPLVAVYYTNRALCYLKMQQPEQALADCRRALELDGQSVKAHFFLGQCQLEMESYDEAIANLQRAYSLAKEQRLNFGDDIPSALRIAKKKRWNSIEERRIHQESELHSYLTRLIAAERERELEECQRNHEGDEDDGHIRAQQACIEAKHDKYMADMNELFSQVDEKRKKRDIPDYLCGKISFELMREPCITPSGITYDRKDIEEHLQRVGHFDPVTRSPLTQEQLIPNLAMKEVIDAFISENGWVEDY
UniProt P21796: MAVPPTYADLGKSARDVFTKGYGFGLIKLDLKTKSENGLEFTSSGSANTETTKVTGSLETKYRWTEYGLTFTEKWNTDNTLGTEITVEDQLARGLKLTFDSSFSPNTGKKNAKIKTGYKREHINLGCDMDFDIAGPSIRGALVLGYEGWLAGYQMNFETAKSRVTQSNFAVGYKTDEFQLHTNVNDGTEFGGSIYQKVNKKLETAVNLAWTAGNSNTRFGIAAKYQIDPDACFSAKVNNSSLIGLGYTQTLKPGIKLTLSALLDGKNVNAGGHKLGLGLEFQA
UniProt Q9Z2L0: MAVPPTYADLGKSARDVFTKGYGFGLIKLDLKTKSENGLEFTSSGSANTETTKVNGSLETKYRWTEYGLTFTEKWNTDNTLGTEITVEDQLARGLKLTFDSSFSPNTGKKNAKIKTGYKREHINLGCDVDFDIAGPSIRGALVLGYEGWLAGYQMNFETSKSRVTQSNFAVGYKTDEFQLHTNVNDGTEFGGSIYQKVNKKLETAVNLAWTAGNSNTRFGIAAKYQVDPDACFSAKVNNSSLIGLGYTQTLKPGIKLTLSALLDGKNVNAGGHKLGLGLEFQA

Results are given in words; binding and its absence hold for the method and conditions named. Binding seen in cells or lysates may run through a third protein. Some entries that bind do so weakly or less than the wild type.

What all share (assay): co-IP
The target in one test is PIAS1 (UniProt O75925).
Test [1] concerns the target E3 ligase CHIP (human (endogenous in SH-SY5Y)) (UniProt Q9UNE7).
The target of test [2] is E3 ligase CHIP, rat brain (rat (endogenous in SD rat brain, SN and STR)) (UniProt A6HD62).

Consider “VDAC1 (lysate of the experiment not stated; data not shown) (from UniProt P21796 1-283)”, for which, in the test with PIAS1, the binding entry was “binds weakly”.
Take “Voltage-dependent anion channel 1 (VDAC1) (from UniProt P21796 1-283)”: the binding entry in test [1] is given as “binds”.
As for “Voltage-dependent anion channel 1 (VDAC1), rat brain (from UniProt Q9Z2L0 1-283)”, in test [2], the binding result is “binds”.
